Measured values reported in patent US20210139540A1 (priority 2014, published 2021).
“And” between values parts separate entries of the source, which are not always exact repeats. Identical values can stand only once.

Assay: general procedure: solution-phase peptide synthesis; N-hydroxysuccinimide active ester (Boc-Gly2-(MCM)Gly-OSu, 9) with Et3N in DMSO
Settings: TFA salt, Et3N/Na salts

| Substance | step yield (late stage modification step) [%] | further results |
| --- | --- | --- |
| {CF3COOH.H-[Gly2(MCMGly)]3Gly2-NHCH2}4C | 99 | – |
| {Boc-[Gly2(MCMGly)]5Gly2-NHCH2}4C | – | step yield (coupling step): 95% |
| (Mal-βAla-(Gly2CMGly)5Gly2-NHCH2)3[DE-CO(CH2)4CO-(Gly2CMGly)5Gly2-NHCH2]C | 70 | – |
| {CF3COOH.H-[Gly2 (MCMGly)]4Gly2-NHCH2}4C | 96 | – |
| (MUT21-Mal-βAla-(Gly2CMGly)5Gly2-NHCH2)3[DE-CO(CH2)4CO-(Gly2CMGly)5Gly2-NHCH2]C (SQTNDKHKRDTYPC; trimeric maleimide-CMG linker lipid construct) | – | conjugation yield (conjugation step): 84% |
| {CF3COOH.H-[Gly2(MCMGly)]2Gly2-NHCH2}4C | 98 | – |
| {Boc-[Gly2(MCMGly)]3Gly2-NHCH2}4C | – | step yield (coupling step, run 1): 71% and 94% and 74% |
| {CF3COOH.H-[Gly2(MCMGly)]5Gly2-NHCH2}4C | 99 | – |
| [H-(Gly2CMGly)5Gly2-NHCH2]3[DE-CO(CH2)4CO-(Gly2CMGly)5Gly2-NHCH2]C, Na, Et3N-salt | – | step yield (lipidation step): 25.5% |
| {CF3COOH.H-[Gly2(MCMGly)]Gly2-NHCH2}4C | 99 | – |
| {Boc-[Gly2(MCMGly)]Gly2-NHCH2}4C | – | step yield (coupling step): 68% |
| {Boc-[Gly2(MCMGly)]4Gly2-NHCH2}4C | – | step yield (coupling step): 96% |
| {Boc-[Gly2(MCMGly)]2Gly2-NHCH2}4C | – | step yield (coupling step): 71% |
| [CF3COOH.H-(Gly2CMGly)5Gly2-NHCH2]4C, Et3N-salt | 98 | – |
